Laboratory results: PubChem BioAssay AID602196 (INSERM, 2012)
In all, the deposit lists about 23,000 reagents; below is a part drawn at random. 455 of them (2%) were called active. 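Active includes both protection and sensitisation; some change values fall well beyond the stated -50 to +50 range.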 Not given: the amount of reagent.

Aim: 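Genes whose knock-down alters cisplatin killing of lung cancer cells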
System: human A549 lung cancer cells
Reagent: siRNA pair against human genes
Time to read-out: 48 h transfection before cisplatin; time from cisplatin to read-out not stated
Conditions: cisplatin at a dose killing half of control-siRNA cells; exact dose and duration not given
Measurement: 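Shift in cisplatin death relative to control siRNA, from -50 (all cells die) to +50 (no cells die); siRNAs harmful on their own scored 0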
Reading the numbers: two-siRNA summed score (-2 to +2): higher = both siRNAs protect from cisplatin killing; -2 means both sensitise; mean protection from cisplatin (shift in death) and protection from cisplatin (shift in death), siRNA C and protection from cisplatin (shift in death), siRNA D: higher = protection from cisplatin killing
Rule for the call: 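Each siRNA scores 0 if harmful alone by LDH or WST-1, otherwise +1 if it reduces and -1 if it increases cisplatin killing; a gene is active when both siRNAs agree (sum +2 or -2)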
Meaning of the calls: active = both siRNAs shift cisplatin killing the same way; inactive = no consistent shift, or siRNA harmful alone

Target gene,PubChem SID,two-siRNA summed score (-2 to +2),mean protection from cisplatin (shift in death) (%),"protection from cisplatin (shift in death), siRNA C (%)","protection from cisplatin (shift in death), siRNA D (%)",outcome
LOC440156,SID131515882,0,9.8,6.4,13.2,inactive
FSIP1,SID131515823,0,9.7,3.2,16.3,inactive
LOC388080,SID131519557,1,6.3,0.9,11.7,inactive
LOC402663,SID131521677,1,14.4,4.3,24.5,inactive
PKNOX1,SID131511123,0,4,8.7,-0.7,inactive
SOCS1,SID131504388,0,-5.5,-6.4,-4.7,inactive
CD302,SID131508625,0,1.3,4.3,-1.7,inactive
GPR21,SID131520756,1,11,-6.8,28.8,inactive
GATD3,SID131503727,0,-8.2,-1.9,-14.4,inactive
CHST13,SID131503321,0,-11,-8.8,-13.2,inactive
MKS1,SID131505071,0,-3.9,-15.5,7.8,inactive
LOC440570,SID131517727,0,14.5,10.9,18.1,inactive
SLC35D1,SID131518476,0,20.2,9.4,31.1,inactive
ITGAL,SID131501627,-1,-8.6,5.5,-22.6,inactive
PARD6G,SID131521884,1,15.3,23.7,6.9,inactive
LINC00922,SID131518475,0,20.2,26.7,13.7,inactive
ZCCHC13,SID131509341,0,2,-1.6,5.7,inactive
RSPO1,SID131509609,0,2.3,10,-5.3,inactive
PRR13,SID131515634,0,9.5,9.8,9.1,inactive
KRTAP5-9,SID131507410,0,-0.2,-12.7,12.3,inactive
LOC389178,SID131517602,0,14,20.9,7.2,inactive
LOC127295,SID131514093,0,7.4,16.1,-1.3,inactive
HOXA10,SID131519542,1,6.2,12.5,0,inactive
CYP4F8,SID131505792,0,-2.6,-1.2,-3.9,inactive
RHBDF1,SID131518271,0,17.8,33.8,1.7,inactive
ZFP37,SID131522928,2,12.1,15.7,8.4,active
PQBP1,SID131513779,0,7,14.4,-0.4,inactive
TMEM171,SID131501859,-1,-6.9,7.3,-21.2,inactive
SMARCA2,SID131506398,0,-1.6,-10.3,7.2,inactive
VTCN1,SID131506843,0,-0.9,0.6,-2.4,inactive
SAP30L,SID131513151,0,6.3,1.4,11.2,inactive
B4GALT3,SID131509286,0,2,6.4,-2.4,inactive
LOC440508,SID131510157,0,2.9,5.7,0.2,inactive
ZFP1,SID131516957,0,12.1,7.1,17,inactive
LINC02843,SID131518297,0,18,14.1,21.9,inactive
FBXO8,SID131502124,-1,-5.1,-32.9,22.7,inactive
ADGRL3,SID131521112,1,12.2,18.8,5.6,inactive
CARNMT1,SID131515392,0,9.1,5.5,12.7,inactive
TYROBP,SID131501280,-1,-10.8,-6.1,-15.4,inactive
LOC400581,SID131507141,0,-0.5,-17,16,inactive
LOC389725,SID131521467,1,13.6,2.7,24.6,inactive
RGSL1,SID131519248,1,4.1,14.1,-5.9,inactive
RGSL1,SID131520426,1,9.9,4.9,14.8,inactive
GINS2,SID131502853,0,-23,-11,-34.9,inactive
LOC440748,SID131522708,1,22,32.8,11.3,inactive
LOC284417,SID131508110,0,0.6,-3.5,4.8,inactive
NDUFV3,SID131518257,0,17.6,13.4,21.9,inactive
HSD17B7P2,SID131517700,0,14.4,42,-13.2,inactive
SNRPN,SID131506578,0,-1.3,-4.7,2.1,inactive
TMX3,SID131505556,0,-3,5.8,-11.7,inactive
HBEGF,SID131517979,0,15.7,-1.4,32.9,inactive
ZFHX2,SID131503755,0,-8,-20.3,4.3,inactive
ZFHX2,SID131516361,0,10.7,9,12.5,inactive
LOC400804,SID131507736,0,0.2,-3.6,4.1,inactive
LOC392467,SID131511508,0,4.4,6.3,2.5,inactive
PSMG3,SID131502477,-1,-2,-12.2,8.2,inactive
RNASE9,SID131521915,1,15.4,13.5,17.3,inactive
SLC22A13,SID131519767,1,7.3,12.5,2.2,inactive
ENG,SID131509109,0,1.8,10.9,-7.3,inactive
COL10A1,SID131522756,1,23,20.8,25.3,inactive
POLR2L,SID131500854,-1,-15.1,-5.8,-24.4,inactive
LOC343069,SID131522236,1,17,7.6,26.5,inactive
KLHL9,SID131516165,0,10.4,3.9,16.8,inactive
PCK2,SID131522114,1,16.3,7.8,24.9,inactive
B9D2,SID131512423,0,5.5,5.2,5.7,inactive
CBS,SID131506683,0,-1.1,-9.9,7.6,inactive
CLIC2,SID131522218,1,16.9,21.6,12.3,inactive
INTU,SID131517536,0,13.8,13.2,14.3,inactive
SPATS1,SID131521593,1,14.1,16.8,11.4,inactive
CACNG2,SID131511700,0,4.6,6.6,2.6,inactive
KCNJ12,SID131509215,0,1.9,-10.6,14.5,inactive
SNX2,SID131503678,0,-8.5,-15.3,-1.7,inactive
SLC17A7,SID131515303,0,9,8.2,9.8,inactive

Records listed so far whose gene name begins with I or i:
Target gene,PubChem SID,two-siRNA summed score (-2 to +2),mean protection from cisplatin (shift in death) (%),"protection from cisplatin (shift in death), siRNA C (%)","protection from cisplatin (shift in death), siRNA D (%)",outcome
ITGAL,SID131501627,-1,-8.6,5.5,-22.6,inactive
INTU,SID131517536,0,13.8,13.2,14.3,inactive
